Measurements: PMC10342119, “ABF1 Positively Regulates Rice Chilling Tolerance via Inducing Trehalose Biosynthesis” (International Journal of Molecular Sciences, 2023)

Molecular target: T1, GST-ABF1 (Oryza sativa L. ssp. japonica cv Nipponbare) (UniProt Q0JHF1)
T1 sequence (looked up): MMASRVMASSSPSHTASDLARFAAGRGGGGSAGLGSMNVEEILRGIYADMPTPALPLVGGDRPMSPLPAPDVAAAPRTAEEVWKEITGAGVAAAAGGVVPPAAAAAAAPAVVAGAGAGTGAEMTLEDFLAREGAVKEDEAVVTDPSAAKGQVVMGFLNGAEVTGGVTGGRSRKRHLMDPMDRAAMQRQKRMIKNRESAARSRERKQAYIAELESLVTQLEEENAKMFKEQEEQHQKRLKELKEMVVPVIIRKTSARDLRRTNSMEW
Experiment: EMSA
Conditions: EMSA/gel-shift binding buffer (composition, pH and temperature not stated); 20 fmol biotin-labeled probe; 6% acrylamide gel; recombinant protein; residues …; protein details: N-terminal GST (pGEX-4T-1); label: biotin

Binding result, no binding:
CGATCGAGGTCGTCGCGGCGGTGTACTACGTGGTAATAAATCAGTGTCAAAGCATGGGG (double strand) [TPP5 promoter probe], CGTGGCTGTGCATGTCGCCTGTCATGTACCCACGTCGCCCCAGAGAAAAAGTTGGGCAA (double strand) [TPS9 promoter probe], GAGGGTGTCTAACGTAACTTCCCACCTGACGTGGTTACTAACATGTGAGCCTGAGGGTG (double strand) [TPP6 promoter probe], GCGGCAGACAGCTTGAGGACGGCCCACGTGGCCTCGATGAGTCAACCATGCAATTAATG (double strand) [TPS5 promoter probe]

No signal at the amounts used counts as a negative. At least one verdict was read from the data and is not stated in words by the source. Protein sequences can lack the tags named with them.
